PMC4263151

Chains of the proteins cited; added tags and fusions are not shown.
UniProt Q00839, whole entry: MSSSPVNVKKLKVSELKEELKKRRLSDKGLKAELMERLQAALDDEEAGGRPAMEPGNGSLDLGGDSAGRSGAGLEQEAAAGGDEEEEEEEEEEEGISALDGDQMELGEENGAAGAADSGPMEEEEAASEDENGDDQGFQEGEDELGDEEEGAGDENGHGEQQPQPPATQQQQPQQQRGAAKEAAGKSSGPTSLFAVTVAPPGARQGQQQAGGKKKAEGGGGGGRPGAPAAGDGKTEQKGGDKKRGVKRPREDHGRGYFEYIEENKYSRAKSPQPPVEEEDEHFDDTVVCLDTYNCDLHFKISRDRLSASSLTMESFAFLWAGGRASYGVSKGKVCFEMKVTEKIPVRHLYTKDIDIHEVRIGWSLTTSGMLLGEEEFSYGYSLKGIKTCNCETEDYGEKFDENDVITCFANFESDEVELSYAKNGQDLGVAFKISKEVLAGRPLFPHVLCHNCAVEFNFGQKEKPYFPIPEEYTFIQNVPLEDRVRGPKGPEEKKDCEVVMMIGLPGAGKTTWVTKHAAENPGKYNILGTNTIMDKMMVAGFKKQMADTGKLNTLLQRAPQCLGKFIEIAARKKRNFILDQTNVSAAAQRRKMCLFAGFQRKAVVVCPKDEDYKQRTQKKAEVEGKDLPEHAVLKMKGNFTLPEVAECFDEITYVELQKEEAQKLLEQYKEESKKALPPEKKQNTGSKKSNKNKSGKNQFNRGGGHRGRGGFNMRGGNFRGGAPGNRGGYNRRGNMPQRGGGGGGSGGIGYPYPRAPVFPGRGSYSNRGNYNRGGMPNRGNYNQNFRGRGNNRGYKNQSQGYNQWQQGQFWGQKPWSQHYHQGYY

Molecular target: GST-SAFA (scaffold-attachment-factor A, hnRNP U) (UniProt Q00839)
Assay: EMSA
Settings: salmon sperm DNA competitor; 10 mM HEPES pH 7.9, 1 mM DTT, 50 mM KCl, 2.5 mM MgCl2, 10% glycerol, 0.5 ug (printed 'ig') salmon sperm DNA, 15 min at 4 C; 10-500 ng protein; recombinant protein; protein details: GST (pGEX-4T); label: 32P end label (PNK); probe letters rebuilt from the primers and the genome

| Sequence | binding result |
| --- | --- |
| CGCGGTGCTTGGTCTCTATGAATACGATGACCTAAAGCAAAAAAAGAAGATGGCTATGTCGGTGAAGCTCTATGGAACTGGGGATCAGGAGGCCTGGCAGAAAGGAGTCCTGTTTGCTTCTGGGCAGAACTTGGCATGATGGAGACGCCAGCCAGCGAGATGATGCCAACCAGATTTGCCGAAATTATTGAGAAGAATCTCAAAAGCGCTAGTAGTAAACCGAGTTTCATATCAGACCCAGGTCTTGGATTGAGGAACAGGCAATGGGATCATTCCTCAGTGTGGCCAAAGGATCTGACGAGCCCTCAGTCTTCTTGGAAATTCACTACATAGGCAGCCCCAATGCAGACAAACCACCCCTTGTTTGTTGGGAAAGG (double strand) [CDKN1A promoter 4149-4525 (protrudes into PANDA)] | binds |
| CTGACTCCCAGCACACACTCACACAAGCACACATGCATCAGATCCCAGCCCTGTCGCAAGGATCTGCTGGCAGATCACATACCCTGTTCAGAGTAACAGGCTAAGGTTTACCTGGGGTCTTTAGAGGTCTCCTGTCTCCTACCATCCCCTTCCTCACCTGAAAACAGGCAGCCCAAGGACAAAATAGCCACCAGCCTCTTCTATGCCAGAGCTCAACATGTTGGGACATGTTCCTGACGGCCAGAAAGCCAATCAGAGCCACAGCCTGCTGCCCAAGCATGTTCCTGGGAAGCAGGCAGCATAGGGATGGAGGGAGGCTCAGCCTGGGGGACAAGAGTGCCCAGTCCAGCCCCCTCCCCAGAGTGCGGTGGAGCAGCATGGGGTAGGGGAATGGTGAAAGGTGGAAAGCCCAAGCCTGAAGAAGGAGGATGTGAGGAAGGCTCAGTGGTG (double strand) [CDKN1A promoter 2029-2478] | binds |
| GAAATGCCTGAAAGCAGAGGGGCTTCAAGGCAGTGGGAGAAGGTGCCTGTCCTCTGCTGGACATTTGACAACCAGCCCTTTGGATGGTTTGGATGTATAGGAGCGAAGGTGCAGACAGCAGTGGGGCTTAGAGTGGGGTCCTGAGGCTGTGCCGTGGCCTTTCTGGGGTTTAGCCACAATCCTGGCCTGACTCCAGGGCGAGGCAGGCCAAGGGGGTCTGCTACTGTGTCCTCCCACCCCTACCTGGGCTCCCATCCCCACAGCAGAGGAGAAAGAAGCCTGTCCTCCCCGAGGTCAGCTGCGTTAGAGGAAGAAGACTGGGCATGTCTGGGCAGAGATTTCCAGACTCTGAGC (double strand) [CDKN1A promoter 1335-1688] | binds more weakly |
| GGAGGCAAAAGTCCTGTGTTCCAACTATAGTCATTTCTTTGCTGCATGATCTGAGTTAGGTCACCAGACTTCTCTGAGCCCCAGTTTCCCCAGCAGTGTATACGGGCTATGTGGGGAGTATTCAGGAGACAGACAACTCACTCGTCAAATCCTCCCCTTCCTGGCCAACAAAGCTGCTGCAACCACAGGGATTTCTTCTGTTCAGGTGAGTGTAGGGTGTAGGGAGATTGGTTCAATGTCCAATTCTTCTGTTTCCCTGGAGATCAGGTTGCCCTTTTTTGGTAGTCTCTCCAATTCCCTCCTTCC (double strand) [CDKN1A promoter 677-981] | binds |
| GTATTCAGGTGGCTGAGGTGGGAGAATCGCTTGAACCTAGGAGGCGGAGGTTGCAGTGAGCTGAGATCATGCCACCTGCACTCCAGCCTGGGTGACAGAGTGAGACTCCGTCTCAAAAAAAAAATATATAAATCTTTGTGTAAAATGAAAAAAAAATCAAGGCATAAAAATTTCATTGTGTTCTACATTTTTAAATATAAATTGCCTCCTTTAAAATATTTTCATCCATTCATTCAAAAACCTTTTAACTTCAACTGTCCAATTTAAGATAGAGTGAAGACATTTTTGAGTATCTGAACTAAGCATTGTCTTGACTGAAACGAAGTAAGAACTCTATGAGAGTCCTTGTGGGCCTCCCGGTCATGCCTTTCCATAGATAGGGAACCTCATCTTTGTTGGTCATCACACCTGCTATGTC (double strand) [CDKN1A promoter 3141-3558] | binds more weakly |

For at least one entry, the source does not settle the construct or the ends of the probe. Weaker means in comparison with the reference protein, sequence or condition of that experiment.
